Sequences and labels used below:
T1: human MuSK (human, UniProt O15146 24-495)
T1 construct: Recombinant protein coated on ELISA plates (R&D Systems cat. 10189-MK) or on the Biacore chip; also called human muscle-specific tyrosine protein kinase; full length human MuSK
T1 sequence: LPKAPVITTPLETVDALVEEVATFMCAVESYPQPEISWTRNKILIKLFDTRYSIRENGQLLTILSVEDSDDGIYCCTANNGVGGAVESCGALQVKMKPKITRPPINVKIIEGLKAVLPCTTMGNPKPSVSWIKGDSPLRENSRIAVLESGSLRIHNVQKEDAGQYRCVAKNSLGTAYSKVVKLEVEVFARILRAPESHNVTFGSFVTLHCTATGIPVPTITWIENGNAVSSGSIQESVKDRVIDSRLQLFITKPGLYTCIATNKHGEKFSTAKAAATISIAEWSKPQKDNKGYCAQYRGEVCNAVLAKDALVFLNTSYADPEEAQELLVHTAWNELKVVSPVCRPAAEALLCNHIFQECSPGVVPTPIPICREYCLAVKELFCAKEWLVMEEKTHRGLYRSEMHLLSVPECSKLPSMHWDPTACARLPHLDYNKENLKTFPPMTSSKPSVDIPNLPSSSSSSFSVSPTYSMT

T2: mouse MuSK (mouse, UniProt Q61006 22-494, limits assumed)
T2 construct: Coated on ELISA plates or on the Biacore chip; also called full length mouse MuSK; mouse MuSK (in house produced in HEK293 cells)
T2 sequence (looked up): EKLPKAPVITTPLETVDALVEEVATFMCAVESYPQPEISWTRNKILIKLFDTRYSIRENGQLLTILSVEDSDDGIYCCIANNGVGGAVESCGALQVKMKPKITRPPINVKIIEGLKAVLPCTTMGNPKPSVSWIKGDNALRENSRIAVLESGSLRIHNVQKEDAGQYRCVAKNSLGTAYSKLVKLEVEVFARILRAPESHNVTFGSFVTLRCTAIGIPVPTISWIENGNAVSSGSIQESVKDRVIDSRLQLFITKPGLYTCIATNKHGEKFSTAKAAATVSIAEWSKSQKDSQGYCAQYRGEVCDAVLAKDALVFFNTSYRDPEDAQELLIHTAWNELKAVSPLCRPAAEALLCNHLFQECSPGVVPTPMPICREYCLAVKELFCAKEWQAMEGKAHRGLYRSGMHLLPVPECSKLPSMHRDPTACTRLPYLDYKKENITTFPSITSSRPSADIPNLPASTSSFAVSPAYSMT

B1: 3B2g1m1 (antibody, human IgG1, V domains shown)
VH: EVQLLESGGGLVQPGGSLRLSCAASGFTFSDYGMSWVRQAPGKGLEWVSAIPWSGGSTYYKESVKGRFTISRDNSKNTLYLQMNSLRAEDTAVYYCAKRSGRIAFGALDAWGQGTLVTVSS
VL: QTVVTQEPSFSVSPGGTVTLTCGLSSGSVTSSNYPDWYQQTPGQAPRTLIYSTDSRHSGVPDRFSGSILGNKAALTITGAQADDESDYYCGLYMYSGSKNYVFGGGTKLTVL
notes: human IgG1-LALA backbone; produced in HEK293 cells
B2: 3B2g2m1 (antibody, human IgG1, V domains shown)
VH: B1 VH
VL: B1 VL with M94S
notes: human IgG1-LALA backbone; produced in HEK293 cells; also called MuSK agonist antibody 3B2g2m1; MuSK-mAb 3B2g2m1
B3: 3B2g1m2 (antibody, human IgG1, V domains shown)
VH: B1 VH with W53G
VL: B1 VL
notes: as for B1
B4: 3B2g1m4 (antibody, human IgG1, V domains shown)
VH: B1 VH with S54Q
VL: B1 VL
notes: as for B1
B5: 3B2g2m4 (antibody, human IgG1, V domains shown)
VH: B1 VH with S54Q
VL: B1 VL with M94S
notes: as for B1
B6: 3B2g2m2 (antibody, human IgG1, V domains shown)
VH: B1 VH with W53G
VL: B1 VL with M94S
notes: as for B1
B7: 23B6 (antibody, V domains shown)
VH: QVQVQESGPGLVKPSQTLSLTCTVSGGSITARYYSWSWIRQPPGKGLEWMGVIAYDGSTYYSPSLKSRTSISRDTSKNQFSLHLSSVTPDDTAVYYCARGSSRVAAAFDSWGQGTQVTVSS
VL: SYELTQSPSVSVALRQTAKITCGGDNIGSKNAQWYQQKPGQAPVMVLYADSRRPSGIPERFSGSNSGNTATLTISGAQAEDEADYYCHVWDSSTNAWFGGGTHLTVL
B8: 4C11 (antibody, V domains shown)
VH: EVQLVESGGGLVQPGGSLSLSCVASGFTFSLYYMNWVRQAPGKGLEWLSVIDTHSIAYYADSVKGRFTISRDNVKNTLYLQLNNLKPEDTALYYCVLGRTALVRWGQGTQVTVSS
VL: DIVMTQSPSSVTASAGERVTINCRSSQSVLYSSNQKNYLNWYQQRLGQSPRLLIYWASARESGVPDRFSGSGSTTNFTLTISSFQPEDAAVYYCQQSYKPPYGFGSGTRLEIK
B9: 7A12 (antibody, V domains shown)
VH: B8 VH
VL: EIVLTQSPSSVTASIGEKVTINCESSQSVLYNQKNYLNWYQQRPGQSPRLLIYWASTRQSGVPDRFSGSGSGSTTDFTLTISSFQPEDVAVYYCQQAYNAPLTFGPGTKVELK
B10: 7B8 (antibody, V domains shown)
VH: B8 VH
VL: EIVLTQSPSSVTASAGEKVTINCKSSQSVLYNQKNYLAWYQQRPGQSPRLLIYWASTRESGVPDRFSGSGSTTDFTLTISSFQPEDVAVYYCQQGYSVPYTFGSGTRLEIK
B11: 7G12 (antibody, V domains shown)
VH: B8 VH
VL: EIVLTQSPNSVTASVGEKVTINCKSSQRVQLGSNQKSYLNWYQQRPGQSPRLLIYYASTQQSGIPDRFSGSGSATDFTLTINSVQPEDAAVYYCQQGYSAPFTFGQGTKVELK
B12: 7G4 (antibody, V domains shown)
VH: B1 VH with V2L, L5V, S30D, S54N, S75A, N77K, R87K, A88S
VL: QAVVTQEPSLSVSPGGTVTLTCGLSSGSVTSSNYPDWYQQTPGQAPRALIYSTNSRHSGVPSRFSGSISGNKAALTITGAQPEDEADYYCALYMGRGSNKDYVFGGGTKLTVL
B13: 3G3 (antibody, V domains shown)
VH: B1 VH with V2L, L5V, S30D, S54N, S75A, N77K, R87K, A88S
VL: QTVVTQEPSLSVSPGGTVTLTCGLSSGSVTSSNYPDWYQQTPGQAPRALIYSTNSRHSGVPSRFSGSTSGNKAALTITGAQPEDEADYYCALYMGSDIRNYVFGGGTKLTVL
B14: 3C4 (antibody, V domains shown)
VH: B1 VH with V2L, L5V, S30D, S54N, S75A, N77K, R87K, A88S
VL: B13 VL with T2A, S31A, A48G, N54D, T68I, G95Y, I98S, R99K, N100L
B15: 31B7 (antibody, V domains shown)
VH: B1 VH with V2L, L5V, S30D, S54N, S75A, N77K, R87K, A88S
VL: B13 VL with T2A, H57L, T68F, D97E, I98S
B16: 31G2 (antibody, V domains shown)
VH: B1 VH with V2L, L5V, S30D, S54N, S75A, N77K, R87K, A88S
VL: B13 VL with T2A, H57L, T68F, D97G, I98S
B17: 30E1 Fab (Fab, V domains shown)
VH: B7 VH
VL: B7 VL with Q16R, A32T, M45L, L47I
notes: Fab format
B18: 30A11 Fab (Fab, V domains shown)
VH: B7 VH
VL: SYELTQSPSVTVALRQTAKITCGGDNIASKNVQWYQQKPGQAPSLVIWADSRRPSGIPVRFSGSNFGNTATLTISGAQAEDEADYYCQVWDSSTNVAVFGGGTHLTVL
notes: Fab format

Numbering of substitutions follows the chain as printed. These are yes or no findings as the source states them, for the method shown. Some results given as binding are weak or reduced against the parent protein; the word gives no strength.

The first test deals with T1, human MuSK. The test is described as follows: ELISA on coated MuSK.
In the case of B1, the binding entry is “binds”.
The same measure, in the same setting: under B2 stands “binds”; under B3, “binds”.
Still for that read-out and setting: under B4 stands “binds”; under B5, “binds”.
Consider B6, for which the binding result is listed as “binds”.

The next test addresses T2, mouse MuSK. The test is described as follows: ELISA, coated MuSK 0.2 ug/ml. A general note: In an ELISA, binding on a coated surface is turned into a signal by an enzyme label.
For the molecule B7, the binding entry is “binds”.
Same read-out and setting: the entry for B8 is “binds”; for B9 it is “binds”; for B10 it is “binds”.
Regarding B11, the binding entry is recorded as “binds”.
For B12, the binding entry was “binds”.
On to B13, for which the binding entry is on record as “binds”.
The same measure, in the same setting: the entry for B14 is “binds”; for B15 it is “binds”.
Same read-out and setting: under B16 stands “binds”.

In another test the target is T1, human MuSK. The test is described as follows: ELISA, plate coated with human MuSK, dilution series of mAb, OD450.
On to B1, for which the binding result is listed as “binds”.
Regarding B2, the binding result is given as “binds”.
Take B3: the binding entry is on record as “binds”.
On the same count and under the same terms, under B4 stands “binds”; under B5, “binds”.
The same measure, in the same setting: the entry for B6 is “binds”.

The next test deals with T1, human MuSK. The test can be described thus: Biacore, Fab in periplasmic extract on CM5 chip coated with full length human MuSK. (Surface plasmon resonance follows binding to a sensor surface in real time, without labels.)
As to B7, the binding entry is on record as “binds”.
Same read-out and setting: under B17 stands “binds”; under B18, “binds”.
B8: the binding result is recorded as “binds”.
On the same count and under the same terms, under B9 stands “binds”.
Still for that read-out and setting: the entry for B10 is “binds”.
Same read-out and setting: under B11 stands “binds”; under B12, “binds”.
Take B13: the binding entry is on record as “binds”.
On the same count and under the same terms, under B14 stands “binds”; under B15, “binds”.
The same measure, in the same setting: under B16 stands “binds”.

The target of the next test is T2, mouse MuSK. The test can be described thus: Biacore, Fab in periplasmic extract on CM5 chip coated with full length mouse MuSK.
As for B7, the binding result is “binds”.
On to B8, for which the binding entry is recorded as “binds”.
As to B9, the binding entry was “binds”.
Regarding B10, the binding entry is recorded as “binds”.
For B11, the binding result is given as “binds”.
Turning to B12, the binding entry is recorded as “binds”.
Same read-out and setting: the entry for B13 is “binds”; for B14 it is “binds”.
As to B15, the binding result is listed as “binds”.
The same measure, in the same setting: the entry for B16 is “binds”.

The values above are taken from patent publication US20230151091A1 (NEW YORK UNIVERSITY, published 2023).
